From PubChem BioAssay AID504467 (National Center for Advancing Translational Sciences (NCATS), 2011)
In all, about 330,000 compounds went through this assay and about 7,700 (2.3%) were called active. The shares of active, inactive and inconclusive entries below differ from those in the screen. The call rests on the fitted dose curve; in most records, active means well fitted inhibition curve with a large enough effect; inconclusive means small, poorly fitted or top-dose-only effect, or effect the other way; inactive means flat fitted curve, though single readings scatter. A potency beside an inconclusive call is a rough fit, not a confirmed value.

test: qHTS screen for small molecules that inhibit ELG1-dependent DNA repair in human embryonic kidney (HEK293T) cells expressing luciferase-tagged ELG1; settings: HEK293T ELG1-luciferase reporter, luminescence, 16 h, DNA damage induced by 5-fluorouridine; series mostly up to 46.1 µM; further: nearly all actives have a fitted effect of over 55% in size
Outline: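 Reporter activity after DNA damage by 5-fluorouridine is monitored. Compound-treated cells incubate 16 hr at 37 °C, then ONE-Glo is added for 30 min before luminescence reading.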
Potency means the concentration at half of the fitted maximal effect.

| SMILES | Potency |
| --- | --- |
| CO/N=C\CC(=O)Nc1ccc(Cl)cc1Cl | inactive |
| CS(=O)(=O)NCCNc1ccc(C(F)(F)F)cc1[N+](=O)[O-] | inactive |
| NC(=O)c1nc[nH]c1C(=O)Nc1cccc(NC(=O)c2cccc(C(F)(F)F)c2)c1 | inconclusive: 8.2 µM [inhibitor, partial curve, poor fit] |
| Cc1ccc(NS(=O)(=O)c2ccc(F)cc2)nc1 | inactive |
| CC1Cc2ccccc2N1C(=O)CSc1nnc(Cc2ccccc2)n1CCc1ccccc1 (stereo not given) | active: 18.4 µM |
| CC(C)(C)NC(=O)NC(=O)CSc1ncn[nH]1 | inactive |
| CCOC(=O)c1sc(NC(=O)c2ccccc2OC)nc1C | inconclusive: 0.517 µM [activator, full curve] |
| CCOc1ccc(OCCNC(=O)c2cc(C3CC3)nc3c2cnn3C(C)C)cc1 | inconclusive: 29.1 µM [inhibitor, single point] |
| COc1ccc(NC(=O)/C(Cl)=C(/Cl)S(=O)Cc2ccccc2Cl)cn1 (stereo not given) | active: 14.6 µM |
| CCc1nnc(NS(=O)(=O)c2ccc(NCc3cc(Br)ccc3O)cc2)s1 | inactive |
| Cn1nnnc1SCc1ccc(C(=O)Nc2ccccc2F)cc1 | inconclusive: 14.6 µM [activator, partial curve] |
| COc1cccc(C(=O)Nc2nc(-c3ccccc3)c(-c3ccccc3)o2)c1 | inconclusive: 18.4 µM [inhibitor, partial curve] |
| CCN1CCc2c(sc(NC(=O)Cc3ccccc3)c2C(N)=O)C1 | inactive |
| CC(=O)c1ccc(NC(=O)CSc2nc(=O)n3cccc(C)c3n2)cc1 | inconclusive: 22.4 µM [activator, single point] |
| COc1ccc(C2N(c3cccc(Cl)c3)C(=O)C3CCCN32)cc1 (stereo not given) | inconclusive: 16.4 µM [activator, partial curve, poor fit] |
| O=C1CCC(=O)N1c1ccc(CSc2nc3ccccc3[nH]2)cc1 | inconclusive: 9.2 µM [activator, partial curve] |
| COc1cc(NC(=O)Cn2nc(Cc3cccnc3)c3ccccc3c2=O)cc(OC)c1OC | inconclusive: 11.6 µM [inhibitor, partial curve] |
| COC(=O)c1nc(N)sc1-c1ccc(Cl)c(Cl)c1 | inconclusive: 8.2 µM [activator, partial curve] |
| O=C(c1cc(S(=O)(=O)N2CCOCC2)ccc1F)N1CCc2ccccc21 | inconclusive: 20.6 µM [inhibitor, partial curve, poor fit] |
| CCO[C@@H]1OC(C(=O)NCc2nc3ccccc3[nH]2)=C[C@H](c2ccccc2)[C@H]1CCCO | inconclusive: 29.1 µM [inhibitor, single point] |

Part of the list above in order of molecular weight, ascending.

| SMILES | Potency |
| --- | --- |
| CCOC(=O)c1sc(NC(=O)c2ccccc2OC)nc1C | inconclusive: 0.517 µM [activator, full curve] |
| COc1ccc(C2N(c3cccc(Cl)c3)C(=O)C3CCCN32)cc1 (stereo not given) | inconclusive: 16.4 µM [activator, partial curve, poor fit] |
| CC(=O)c1ccc(NC(=O)CSc2nc(=O)n3cccc(C)c3n2)cc1 | inconclusive: 22.4 µM [activator, single point] |
